Two molecules from article PMC11845725 can be followed below.

No constants are given. Whether binding was seen depends on the method and setting.

The target of this experiment is TGM6-D3 (TGM6 domain 3) (Heligmosomoides polygyrus). Description: ITC; each type II receptor (ActRII, ActRIIB, BMPRII) titrated into TGM6-D3 or buffer alone; 25 mM HEPES, 150 mM NaCl, 0.05% NaN3, pH 7.4; both purified. For orientation: ITC needs no label: the signal is the heat of the interaction.

B1: ActRIIB extracellular domain (receptor, UniProt Q13705 19-137)
chain: SGRGEAETRECIYYNANWELERTNQSGLERCEGEQDKRLHCYASWRNSSGTIELVKKGCWLDDFNCYDRQECVATEENPQVYFCCCEGNFCNERFTHLPEAGGPEVTYEPPPTAPTLLT
As to B1, the binding entry is “no binding”.

B2: BMPRII extracellular domain (receptor, UniProt Q13873 27-150)
chain: SQNQERLCAFKDPYQQDLGIGESRISHENGTILCSKGSTCYGLWEKSKGDINLVKQGCWSHIGDPQECHYEECVVTTTPPSIQNGTYRFCCCSTDLCNVNFTENFPPPDTTPLSPPHSFNRDET
Regarding B2, the binding result is given as “no binding”.
